Test results reported in patent US20140243210A1, “PURIFICATION OF IMMUNOGLOBULINS USING AFFINITY CHROMATOGRAPHY AND PEPTIDE LIGANDS” (priority 2005, published 2014).
Where “and” joins values, the source holds several entries; their conditions need not be identical. Equal entries are not always repeated.

How the values were obtained:
HIgG [1] = test: Chromatographic separation of HIgG from MEM, column format (A280, ELISA, SDS-PAGE densitometry); parameters: species or system human
HIgG [2] = test: Adsorption isotherm measurements, Langmuir model; format: binding, human; settings: at maximum capacity
[3] = 2-1, PBS, not MeOH swelled (runs HF1, HY2, HV3, YY1)
[4] = loaded at pH 7.4, low salt, FIG. 11
[5] = run HP28, 0.1 meq/g, 1-26 (0.5 M NaCl wash, pH 4 PB elution), PBS, not MeOH swelled
[6] = run HW2, 0.55 meq/g, 1-26, PBS, not MeOH swelled
[7] = 2-1 (linear salt gradient wash, pH 4 PB elution), PBS, not MeOH swelled (runs HF1, HY2, HV3, YY1)
[8] = 2-1, PBS, MeOH swelled (runs HY1, HV2)

| Substance | ImageJ Purity (HIgG [1]; [3]) [%] | ImageJ Rec (HIgG [1]; [3]) [%] | peptide/protein (HIgG [2]; substitution 0.080 mmol/g) [mol/mol] | ELISA assay Rec (HIgG [1]; [7]) | ELISA assay Purity (HIgG [1]; [8]) [%] | ELISA assay Rec (HIgG [1]; [8]) [%] | ImageJ Purity (HIgG [1]; [8]) [%] | ImageJ Rec (HIgG [1]; [8]) [%] | ELISA assay Purity (HIgG [1]; [3]) | other results |
| --- | --- | --- | --- | --- | --- | --- | --- | --- | --- | --- |
| truncation of the subunit GFRKYLHFRRHLL of a multiple antigenic peptide (MAP) (Immunoglobulin binding peptide sequence) | 78 | 76 | – | – | – | – | – | – | – | – |
| HWRGWV [hexapeptide ligand on Toyopearl AF-amino-650 M resin; 0.1 meq/g unless another substitution is stated] | – | – | 91 | – | – | – | – | – | – | peptide/protein (HIgG [2]; substitution 0.022 mmol/g): 21 mol/mol; peptide/protein (HIgG [2]; substitution 0.040 mmol/g): 41 mol/mol; peptide/protein (HIgG [2]; substitution 0.10 mmol/g): 112 mol/mol; peptide/protein (HIgG [2]; substitution 0.22 mmol/g): 241 mol/mol; peptide/protein (HIgG [2]; substitution 0.55 mmol/g): 600 mol/mol; Percentage of HIgG (by 25 kD HIgG band, densitometry) (HIgG [1]; lane 10: peak 2, pure HIgG injection 5 mg/ml in PBS): 97.2%; HIgG that came off the column with pH 5 PB (HIgG [1]; [4]): 7%; HIgG that came off the column with pH 6 PB (HIgG [1]; [4]): 54%; Yield of HIgG (by 25 kD HIgG bands, densitometry) (HIgG [1]; product peak 2, pH 4 PB elution, MEM + HIgG): ~68% and 68%; ImageJ Purity (HIgG [1]; [5]): 68%; ImageJ Rec (HIgG [1]; [5]): 74%; ELISA assay Rec (HIgG [1]; run HW2, 0.55 meq/g, 1-26 (0.5 M NaCl wash, pH 4 PB elution), PBS, not MeOH swelled): 77% and 80.28%; ELISA assay Purity (HIgG [1]; [6]): 80% and 76.85%; ImageJ Purity (HIgG [1]; [6]): 73%; ImageJ Rec (HIgG [1]; [6]): 73% |
| HYFKFD [hexapeptide ligand on Toyopearl resin, 0.1 meq/g] | 92 | 60 | – | 47.7% and 47.71% | 75.10 | 37.47 | 82 | 39 | 90% and 90.15% | – |
| HWRGWV [Ac-HWRGWV, acetylated HWRGWV on resin, 0.080 mmol/g] | – | – | 92 | – | – | – | – | – | – | – |
| HVHYYW [hexapeptide ligand on Toyopearl resin, 0.1 meq/g] | 65 | 39 | – | 49.11% | 89.59 | 29.95 | 84 | 53 | 78.10% | – |
